According to patent publication US20110301093A1:
These are yes or no findings as the source states them, for the method shown. Binding seen in cells or lysates may run through a third protein. Some binding calls cover weakened binding; strength is not graded here. For part of these data: Sequences can lack the tags named with a protein.

Amino acid sequences for entries named in this document (tags omitted). A change or cut given only in a name is not applied to a line headed by its entry.
UniProt Q07817: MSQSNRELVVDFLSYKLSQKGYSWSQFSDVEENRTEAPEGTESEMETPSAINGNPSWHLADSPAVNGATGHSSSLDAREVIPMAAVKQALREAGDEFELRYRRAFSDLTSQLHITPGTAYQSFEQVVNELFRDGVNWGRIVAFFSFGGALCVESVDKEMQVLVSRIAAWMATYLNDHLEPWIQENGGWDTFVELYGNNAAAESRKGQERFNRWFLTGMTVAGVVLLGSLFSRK
UniProt P10415: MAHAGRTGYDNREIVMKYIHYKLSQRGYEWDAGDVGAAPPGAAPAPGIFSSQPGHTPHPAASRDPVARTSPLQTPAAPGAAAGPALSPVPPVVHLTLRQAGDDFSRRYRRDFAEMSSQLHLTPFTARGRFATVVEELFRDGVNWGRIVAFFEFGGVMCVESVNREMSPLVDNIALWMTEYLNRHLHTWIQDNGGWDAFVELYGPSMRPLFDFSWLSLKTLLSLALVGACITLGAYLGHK
UniProt Q14457: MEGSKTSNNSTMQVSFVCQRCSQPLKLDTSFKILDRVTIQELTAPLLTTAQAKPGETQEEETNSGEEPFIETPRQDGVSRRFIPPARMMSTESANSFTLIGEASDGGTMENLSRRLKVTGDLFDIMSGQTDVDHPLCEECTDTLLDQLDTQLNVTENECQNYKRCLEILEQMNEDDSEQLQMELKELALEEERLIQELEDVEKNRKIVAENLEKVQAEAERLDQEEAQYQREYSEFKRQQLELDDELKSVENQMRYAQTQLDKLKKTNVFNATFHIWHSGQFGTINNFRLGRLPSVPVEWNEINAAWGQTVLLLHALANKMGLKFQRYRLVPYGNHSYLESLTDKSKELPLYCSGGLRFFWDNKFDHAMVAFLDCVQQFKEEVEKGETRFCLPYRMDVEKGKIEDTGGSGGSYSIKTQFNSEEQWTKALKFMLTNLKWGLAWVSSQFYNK

Tests used:
Bcl-XL [1] = target: Bcl-XL (UniProt Q07817); assay: co-immunoprecipitation
Bcl-XL [2] = target: Bcl-XL (UniProt Q07817); assay: co-immunoprecipitation with anti-Flag from co-transfected HEK293 cells
[3] = target: T1, HA-tagged activated DAPk (ΔCaM) (UniProt P53355); assay: co-immunoprecipitation with anti-Flag from HEK293 cells transfected with ΔCaM DAPk
T1 sequence: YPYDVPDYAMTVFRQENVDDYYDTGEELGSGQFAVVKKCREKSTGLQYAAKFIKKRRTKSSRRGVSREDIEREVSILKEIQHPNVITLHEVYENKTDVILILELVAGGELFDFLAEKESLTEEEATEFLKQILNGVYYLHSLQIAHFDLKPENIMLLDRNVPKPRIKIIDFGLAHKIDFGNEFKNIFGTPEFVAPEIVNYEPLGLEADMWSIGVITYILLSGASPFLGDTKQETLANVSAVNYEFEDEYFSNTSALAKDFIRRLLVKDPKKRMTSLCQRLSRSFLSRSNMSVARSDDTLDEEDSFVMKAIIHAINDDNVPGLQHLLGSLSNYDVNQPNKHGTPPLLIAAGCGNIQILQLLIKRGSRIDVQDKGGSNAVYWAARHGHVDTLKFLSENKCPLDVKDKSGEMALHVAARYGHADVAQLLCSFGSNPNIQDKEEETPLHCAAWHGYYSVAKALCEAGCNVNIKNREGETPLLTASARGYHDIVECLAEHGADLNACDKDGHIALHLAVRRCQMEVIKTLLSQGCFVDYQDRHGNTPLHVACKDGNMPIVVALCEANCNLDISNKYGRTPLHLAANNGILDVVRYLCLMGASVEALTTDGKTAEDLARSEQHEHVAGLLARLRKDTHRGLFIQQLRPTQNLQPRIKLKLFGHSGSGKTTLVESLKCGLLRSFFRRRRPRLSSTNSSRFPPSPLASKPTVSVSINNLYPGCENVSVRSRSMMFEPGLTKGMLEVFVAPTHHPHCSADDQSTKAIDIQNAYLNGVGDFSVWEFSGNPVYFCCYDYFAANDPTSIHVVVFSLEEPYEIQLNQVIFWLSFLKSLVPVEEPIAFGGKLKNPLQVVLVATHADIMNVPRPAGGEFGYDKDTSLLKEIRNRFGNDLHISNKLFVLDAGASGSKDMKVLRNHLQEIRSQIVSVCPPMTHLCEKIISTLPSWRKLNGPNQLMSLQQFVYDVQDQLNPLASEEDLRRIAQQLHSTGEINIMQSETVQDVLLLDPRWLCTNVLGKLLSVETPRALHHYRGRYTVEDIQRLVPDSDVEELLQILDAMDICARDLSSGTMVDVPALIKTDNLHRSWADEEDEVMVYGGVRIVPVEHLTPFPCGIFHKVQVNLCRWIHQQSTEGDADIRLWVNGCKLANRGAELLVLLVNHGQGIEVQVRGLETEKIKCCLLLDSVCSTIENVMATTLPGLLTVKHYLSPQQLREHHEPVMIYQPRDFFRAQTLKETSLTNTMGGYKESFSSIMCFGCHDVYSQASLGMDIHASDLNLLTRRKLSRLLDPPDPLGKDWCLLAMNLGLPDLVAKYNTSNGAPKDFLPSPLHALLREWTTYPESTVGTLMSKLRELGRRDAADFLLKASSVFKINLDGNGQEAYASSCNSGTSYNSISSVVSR

Bcl-2 [4] = target: Bcl-2 (UniProt P10415); assay: co-immunoprecipitation
endogenous DAPk [5] = target: endogenous DAPk (UniProt P53355); assay: co-immunoprecipitation
HA-tagged DAPk = HA-tagged DAPk (UniProt P53355); assay: co-immunoprecipitation with anti-Flag from co-transfected HEK293 cells
endogenous DAPk [6] = target: endogenous DAPk (UniProt P53355); assay: co-immunoprecipitation with anti-Flag from HEK293T cells
Bcl-2 [7] = target: Bcl-2 (UniProt P10415); assay: co-immunoprecipitation with anti-Flag from cotransfected HEK293T cells, anti-Bcl-2 blot; wild type is the reference
endogenous DAPk [8] = target: endogenous DAPk (UniProt P53355); assay: GST pull-down
Bcl-2 [9] = target: Bcl-2 (UniProt P10415); assay: GST pull-down from cell extracts, western blot
endogenous DAPk [10] = target: endogenous DAPk (UniProt P53355); assay: GST pull-down from cell extracts, western blot

Measured: binding

Flag-Beclin-1 T119A (from UniProt Q14457 1-450)
binds: Bcl-XL [1] | Bcl-XL [2] | [3]

Flag-tagged Beclin-1 (from UniProt Q14457 1-450)
binds: Bcl-2 [4] | endogenous DAPk [5] | HA-tagged DAPk | [3] | endogenous DAPk [6] | Bcl-2 [7]

GST-Beclin-1 (from UniProt Q14457 1-450)
binds: endogenous DAPk [8] | Bcl-2 [9] | endogenous DAPk [10]
